{"sequences": {"note": "Amino acid sequences for entries named in this document (tags omitted). A change or cut given only in a name is not applied to a line headed by its entry.", "UniProt P51450": "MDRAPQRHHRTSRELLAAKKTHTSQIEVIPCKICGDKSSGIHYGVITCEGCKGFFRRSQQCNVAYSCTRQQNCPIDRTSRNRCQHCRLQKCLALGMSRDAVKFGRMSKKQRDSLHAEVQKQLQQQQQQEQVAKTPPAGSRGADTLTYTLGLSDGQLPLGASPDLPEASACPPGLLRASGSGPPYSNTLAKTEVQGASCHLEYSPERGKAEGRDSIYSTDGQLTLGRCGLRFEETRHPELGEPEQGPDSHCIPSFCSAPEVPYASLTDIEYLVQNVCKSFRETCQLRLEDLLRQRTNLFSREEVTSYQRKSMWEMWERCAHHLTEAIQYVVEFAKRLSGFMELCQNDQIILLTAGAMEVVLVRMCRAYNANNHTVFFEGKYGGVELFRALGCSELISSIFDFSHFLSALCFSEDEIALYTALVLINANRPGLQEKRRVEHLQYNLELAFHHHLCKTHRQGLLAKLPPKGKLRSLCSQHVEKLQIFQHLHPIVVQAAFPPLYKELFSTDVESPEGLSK"}, "source": "PubChem BioAssay AID2551", "about": "(National Center for Advancing Translational Sciences (NCATS), 2010)", "note": "Screen size: about 310,000 compounds; about 17,000 (5.5%) were called active. This list was built around the results that the source calls inconclusive (neither active nor inactive); the mix of calls is not that of the screen. Calls follow the shape of the dose curve; as a rule, active = well fitted inhibition curve with a large enough effect; inconclusive = small, poorly fitted or top-dose-only effect, or effect the other way; inactive = no such curve, though single readings can be large or run the other way. A potency beside an inconclusive call is a rough fit, not a confirmed value. % is scaled to controls: 0 for no effect and ±100 for the full control effect; potency is read from the fitted curve at half-maximal effect.", "data": [{"target": "Nuclear receptor ROR-gamma (Mus musculus) (UniProt P51450)", "test": "qHTS for inhibitors of ROR gamma transcriptional activity; also: nearly all actives have a fitted effect of over 60% in size", "details": "Drosophila S2 Gal4-RORgamma UAS-luciferase reporter, 20 h; activity change, negative = inhibition: at 53.6 µM (top of the series)", "procedure,_shortened": "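Luciferase reporter read in Schneider cells carrying Gal4-RORγ (mouse) and UAS-Photinus luciferase; cells given compound 1 h before 700 uM copper sulfate induction, then incubated 20 h at ambient temperature.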", "values": [{"smiles": "O=C(CCN1C(=O)S/C(=C\\c2cccs2)C1=O)NC1=NCCS1", "Potency": "inconclusive: 20 µM [inhibitor, single point]"}, {"smiles": "Cc1nnc(SCC(=O)Nc2ccc(N3CCN(S(C)(=O)=O)CC3)cc2)o1", "activity change, negative = inhibition": "inactive: -22.8%"}, {"smiles": "CCCCCCn1c(SCCN2CCOCC2)nc2c1c(=O)[nH]c(=O)n2C", "activity change, negative = inhibition": "inactive: 26.8%"}, {"smiles": "COc1cccc(CNC(=O)Cc2ccc(NC(=O)C3=C(C)OCCS3)cc2)c1", "Potency": "inconclusive: 25.1 µM [inhibitor, single point]"}, {"smiles": "O=C(Nc1ccc(N2CCCC2)cc1)c1ccccc1[N+](=O)[O-]", "Potency": "inconclusive: 35.5 µM [activator, single point]"}, {"smiles": "C=CCNc1ncnc2c1cnn2-c1cccc(C)c1", "activity change, negative = inhibition": "inactive: 30%"}, {"smiles": "CCOC(=O)[C@H](Cc1ccc(O)cc1)NC(=O)c1ccccc1", "Potency": "active: 1.41 µM"}, {"smiles": "CCn1c(CCCOc2ccc(Cl)cc2Cl)nnc1SCC(=O)Nc1cccc(F)c1", "activity change, negative = inhibition": "inactive: 15%"}, {"smiles": "O=C(/C=C/c1ccc(Br)cc1)NC(=O)c1ccccc1O", "Potency": "inconclusive: 35.5 µM [inhibitor, single point]"}, {"smiles": "Cc1ccc2nc(-c3cc(N)cc(N)c3)oc2c1", "Potency": "active: 2.82 µM"}, {"smiles": "CCOC(=O)N1CCN(C(=O)COc2cccc3c2CCN(Cc2cccc(C)c2)C3=O)CC1", "Potency": "inconclusive: 10 µM [activator, partial curve]"}, {"smiles": "Cc1nnc(SCc2ccc(C(=O)Nc3cc(Cl)ccc3C)cc2)s1", "Potency": "inconclusive: 12.6 µM [activator, partial curve, poor fit]"}, {"smiles": "CCCS(=O)(=O)N1CCC(C(=O)NCCCN(CC)c2cccc(C)c2)CC1", "activity change, negative = inhibition": "inactive: -34.8%"}, {"smiles": "CCOC(=O)C[N+](C)(C)CCOC1CC2CCC1(C)C2(C)C", "note": "(stereo unspecified)", "activity change, negative = inhibition": "inactive: 23.8%"}, {"smiles": "COc1cc(-c2ccc(NC(=O)NC3CC3)c(OC)c2)ccc1NC(=O)NC1CC1", "Potency": "inconclusive: 5.62 µM [inhibitor, single point]"}, {"smiles": "CCOC(=O)C1=C(C)OC(N)=C(C#N)C1c1cncc(-c2ccc(F)cc2)c1", "note": "(stereo unspecified)", "Potency": "inconclusive: 11.2 µM [activator, partial curve]"}, {"smiles": "Cc1ccc2c(n1)sc1c(N)ncnc12", "activity change, negative = inhibition": "inactive: -24.4%"}, {"smiles": "COc1ccc2nc(CNC(=O)C3CCC(=O)N(CCc4ccccc4)C3)[nH]c2c1", "note": "(stereo unspecified)", "Potency": "inconclusive: 3.55 µM [activator, single point]"}, {"smiles": "O=C(COC(=O)c1ccccn1)c1ccc([N+](=O)[O-])cc1", "Potency": "inconclusive: 1.26 µM [activator, full curve, poor fit]"}, {"smiles": "Cc1cc(Br)cc2c(C(=O)Nc3c(C)n(C)n(-c4ccccc4)c3=O)cc(-c3cccs3)nc12", "Potency": "inconclusive: 2.24 µM [inhibitor, partial curve, poor fit]"}, {"smiles": "CCOc1cc(CNc2ccc3[nH]c(=O)[nH]c3c2)ccc1OCC(=O)NC(C)(C)C", "activity change, negative = inhibition": "inactive: -25.1% [at 0.365 µM]"}, {"smiles": "O=C(CSc1nnc(Cc2cccs2)n1Cc1ccco1)Nc1ccc(Cl)cc1Cl", "Potency": "inconclusive: 15.8 µM [activator, single point]"}, {"smiles": "CC[C@]1(O)CC2CN(CCc3c([nH]c4ccccc34)[C@@](C(=O)OC)(c3cc4c(cc3OC)N(C)[C@H]3[C@@](O)(C(=O)OC)[C@H](OC(C)=O)[C@]5(CC)C=CCN6CC[C@]43[C@@H]65)C2)C1", "note": "(stereo partly specified)", "Potency": "inconclusive: 11.2 µM [activator, partial curve]"}, {"smiles": "CCn1ccc2cc(OC)ccc2c1=S", "activity change, negative = inhibition": "inactive: 20.4%"}, {"smiles": "O=C(COc1ccccc1Cl)NC(=O)NC1CCCC1", "Potency": "inconclusive: 3.98 µM [activator, full curve]"}, {"smiles": "COc1ccccc1NC(=O)c1ccc(NC(=O)COC(=O)C2CCCCC2)cc1", "Potency": "inconclusive: 31.6 µM [activator, single point]"}, {"smiles": "COc1cc(OC)cc(C(=O)Nc2ccc(N3CCN(C(=O)c4cccs4)CC3)cc2)c1", "activity change, negative = inhibition": "inactive: 24.9%"}, {"smiles": "Cc1cccc(N2CC(C)Cn3c2nc2c3c(=O)[nH]c(=O)n2C)c1", "note": "(stereo unspecified)", "activity change, negative = inhibition": "inactive: 1.1%"}, {"smiles": "CCN1CCN(C(CNS(=O)(=O)c2ccc(Br)cc2)c2cccnc2)CC1", "note": "(stereo unspecified)", "activity change, negative = inhibition": "inactive: -6.88%"}, {"smiles": "Cc1cccc(NC(=O)NNC(=O)c2sccc2-n2cccc2)c1", "Potency": "inconclusive: 3.98 µM [inhibitor, single point]"}, {"smiles": "Cc1ccc(-n2nc(CC#N)c(C#N)c2N)cc1Cl", "Potency": "inconclusive: 3.55 µM [activator, single point]"}, {"smiles": "CCOC(=O)N1CCN(c2ccccc2OC)CC1", "activity change, negative = inhibition": "inactive: -6.57%"}, {"smiles": "S=C(Nc1cccnc1)Nc1ccccn1", "Potency": "inconclusive: 0.708 µM [inhibitor, partial curve]"}, {"smiles": "N#CCC(=O)Nc1ccc(C(=O)OCC(=O)N(Cc2ccccc2)C2CCS(=O)(=O)C2)cc1", "note": "(stereo unspecified)", "activity change, negative = inhibition": "inactive: 6.11%"}, {"smiles": "COc1cc(NS(=O)(=O)c2c(C)oc3c(F)c(F)c(F)c(F)c23)cc(OC)c1OC", "activity change, negative = inhibition": "inactive: 82.4%"}, {"smiles": "CCc1ccc(S(=O)(=O)N2CCCC(N3CCN(c4ccc(OC)cc4)CC3)C2)cc1", "note": "(stereo unspecified)", "Potency": "inconclusive: 35.5 µM [activator, single point]"}, {"smiles": "Cc1cccc(NS(=O)(=O)c2ccc(C(=O)NCC(c3ccccc3)N(C)C)cc2)c1C", "note": "(stereo unspecified)", "Potency": "inconclusive: 10 µM [activator, partial curve]"}, {"smiles": "O=C(N/N=C1\\CC2CC=CC12)c1ccc(COc2ccccc2)cc1", "note": "(stereo unspecified)", "Potency": "active: 5.01 µM"}, {"smiles": "COC(=O)c1[nH]c2c(c1C)C(=O)CC(c1cccc(OC)c1)C2", "note": "(stereo unspecified)", "activity change, negative = inhibition": "inactive: 26.6%"}, {"smiles": "O=C(NC1CCC(C(=O)O)CC1)OCc1ccccc1", "note": "(stereo unspecified)", "Potency": "inconclusive: 0.112 µM [activator, partial curve, poor fit]"}, {"smiles": "Cc1oc2c(c1C(=O)N1CCC(C)CC1)C(=O)c1ccccc1C2=O", "Potency": "active: 7.94 µM"}, {"smiles": "CC1=C(c2ccc(NN=C(C#N)C#N)cc2)NNC(=O)C1", "Potency": "active: 22.4 µM"}, {"smiles": "CCOc1ccc(-c2[nH]ncc2-c2ccc(OC)c(OC)c2)c(O)c1", "Potency": "inconclusive: 35.5 µM [inhibitor, single point]"}, {"smiles": "CCSc1nc(=S)n(-c2ccccc2)c(C)c1C(C)=O", "Potency": "inconclusive: 14.1 µM [inhibitor, partial curve, poor fit]"}, {"smiles": "CCOC(=O)CC1=C(C(=O)OCC)C(c2cccnc2)C(C#N)=C(N)O1", "note": "(stereo unspecified)", "activity change, negative = inhibition": "inactive: -3.91%"}, {"smiles": "Cc1ccc(N(CCC(=O)NC(C)(C)C)S(=O)(=O)c2ccc(C)cc2)cc1", "Potency": "inconclusive: 35.5 µM [inhibitor, single point]"}, {"smiles": "S=C(NC1CCCCC1)N(CCc1ccccc1)CCc1ccccc1", "Potency": "active: 10 µM"}, {"smiles": "Cc1cc(C)c2cc(C#N)c(N3CCCC3)nc2c1", "activity change, negative = inhibition": "inactive: 5.64%"}, {"smiles": "C[C@@]12CCC=C[C@H]1[C@H](c1ccc3ccccc3c1Br)N(Cc1ccccc1)C2=O", "activity change, negative = inhibition": "inactive: 2.92%"}, {"smiles": "Oc1ccc(N2CCN(Cc3cc4c(cc3Br)OCCO4)CC2)cc1", "activity change, negative = inhibition": "inactive: -27.9%"}, {"smiles": "Cc1ccc(C)n1-n1cnc2sc(-c3ccccc3)cc2c1=O", "Potency": "inconclusive: 12.6 µM [activator, partial curve]"}, {"smiles": "CC1=NOC(=O)/C1=C/c1ccc(O)cc1", "Potency": "inconclusive: 35.5 µM [inhibitor, single point]"}, {"smiles": "COc1cc(/C=C(/C#N)c2nc3ccccc3[nH]2)ccc1OCC(=O)Nc1ccccc1C", "Potency": "inconclusive: 6.31 µM [inhibitor, single point]"}, {"smiles": "Cc1ccc(C(=O)Nc2ccc3c(c2)CCC3)o1", "Potency": "inconclusive: 20 µM [inhibitor, single point]"}, {"smiles": "O=C(NC(=S)Nc1ccccc1Br)c1cccnc1", "Potency": "active: 10 µM"}, {"smiles": "COc1cccc2sc(Nc3nc(-c4cc5ccccc5oc4=O)cs3)nc12", "Potency": "inconclusive: 0.0794 µM [inhibitor, full curve, poor fit]"}, {"smiles": "COc1ccccc1-c1cc2nc(C)c(CCC(=O)NCc3ccc(F)cc3)c(C)n2n1", "activity change, negative = inhibition": "inactive: 18%"}, {"smiles": "CCOC(=O)c1nnc(-c2ccccc2)nc1Oc1ccc(Cl)cc1", "Potency": "active: 20 µM"}, {"smiles": "CC1(C)CC(CCNS(=O)(=O)c2ccccc2)(c2ccccc2)CCO1", "note": "(stereo unspecified)", "activity change, negative = inhibition": "inactive: 22.7%"}, {"smiles": "Cc1ccc(-c2nc(-c3ccncc3)no2)c(C)c1", "activity change, negative = inhibition": "inactive: -32.9%"}, {"smiles": "O=C(c1cccc(C(F)(F)F)c1)N1CCN(C2CCCCC2)CC1", "Potency": "inconclusive: 20 µM [activator, single point]"}, {"smiles": "Cc1nc2cc(OCc3cc(C(=O)NC(C)c4cnn(C)c4)no3)ccc2s1", "note": "(stereo unspecified)", "activity change, negative = inhibition": "inactive: -2.88%"}, {"smiles": "COC(=O)Cc1cc(=O)[nH]c(/N=C(\\N)Nc2ccc(C)cc2)n1", "activity change, negative = inhibition": "inactive: 10.4%"}, {"smiles": "Cc1ccc(NC(=O)c2cncc(Br)c2)cc1S(=O)(=O)N(C)C", "activity change, negative = inhibition": "inactive: 44.9%"}, {"smiles": "COc1cc(-c2nc(-c3ccccc3)c(-c3cc([N+](=O)[O-])ccc3C)[nH]2)cc(OC)c1OC", "Potency": "inconclusive: 12.6 µM [activator, single point]"}, {"smiles": "COCCNC(=S)N/N=C(\\C)c1cccc([N+](=O)[O-])c1", "Potency": "active: 3.55 µM"}, {"smiles": "CCN1CCN(S(=O)(=O)c2cc3c(cc2Cl)NC(=O)CO3)CC1", "activity change, negative = inhibition": "inactive: 0.339%"}, {"smiles": "CCCc1nc(SCC(=O)Nc2cc(Cl)ccc2OC)c2c(=O)n(C)c(=O)n(C)c2n1", "activity change, negative = inhibition": "inactive: 3.34%"}, {"smiles": "Clc1ccc(-c2nc3ccccn3c2CN2CCOCC2)cc1", "activity change, negative = inhibition": "inactive: 1.52%"}, {"smiles": "CCOc1ccc(NS(=O)(=O)c2ccc(SC)cc2)cc1", "Potency": "inconclusive: 35.5 µM [activator, partial curve, poor fit]"}, {"smiles": "Nc1ccc(-c2nc3ccc(N)cc3s2)cc1", "Potency": "inconclusive: 2.51 µM [inhibitor, partial curve]"}, {"smiles": "O=C1/C(=C/c2ccccc2)Oc2ccccc21", "activity change, negative = inhibition": "inactive: 5.32% [at 10 µM]"}, {"smiles": "O=C(NC1CCCCC1)c1ccccc1NC(=O)C1CC1", "activity change, negative = inhibition": "inactive: -1.47%"}, {"smiles": "COc1ccccc1-c1nc(N(C)Cc2ccco2)c2ccccc2n1", "Potency": "inconclusive: 10 µM [inhibitor, partial curve]"}, {"smiles": "CCCc1nn(C)c(C(=O)Nc2ccc(C(C)(C)C)cc2)c1Cl", "Potency": "inconclusive: 35.5 µM [activator, single point]"}, {"smiles": "C=CCOC(=O)C1=C[C@H](c2ccc(C(F)(F)F)cc2)[C@@H](CCCO)[C@H](OCC)O1", "Potency": "inconclusive: 3.16 µM [activator, single point]"}]}]}
